Laboratory results: patent US20250283871A1, “COMPOSITIONS AND METHODS FOR MODULATING THE INTERACTION BETWEEN SS18-SSX FUSION ONCOPROTEIN AND NUCLEOSOMES” (Dana-Farber Cancer Institute, Inc., priority 2020, published 2025)

System: BAF complex subunits and histone proteins
Test: Mass spectrometry proteomics of purified HA-SS18 WT and HA-SS18-SSX1 complexes (Tables 5A-5E)
Parameters: species or system human
Settings: HA-SS18SSX1_CHR_peptides: protein identified in the HA-SS18-SSX1 purification from solubilized chromatin (CHR), HEK-293T

Substance	Total (total peptides)	Unique (unique peptides)
NUP205	9	9
PBRM1	16	14
PDCD11	26	26
PELP1	11	10
PES1	11	9
PHIP	18	17
PNN	67	25
PRKDC	17	17
PRPF8	42	38
RAI1	9	9
RANBP2	5	5
RLF	7	7
SMARCA2	490	84
SNRNP200	44	42
SON	11	10
SPEN	26	24
SRSF1	25	11
SRSF3	5	2
SSRP1	26	19
SSX1	60	4

Same assay, conditions: HA-SS18SSX1_CHR_peptides: proteins found in HA-SS18-SSX1 BAF complex purification from solubilized chromatin (CHR), HEK-293T

Substance	Total (peptides)	Unique (peptides)
PCBP1	1	1
PCID2	1	1
RBBP6	1	1
REV3L	1	1
SAFB2	1	1

Same assay, conditions: HA-SS18SSX1_CHR_peptides; total peptides of the identified protein

Substance	Total
NUP188	2
NUP214	4
PHRF1	2
POTEKP	2
PPP1CA	1
PTBP1	2
RBM25	4
RFC2	1
RFC4	1
RIF1	2
SENP3	2
SNRNP70	2

Same assay, conditions: HA-SS18SSX1_CHR_peptides; unique peptides of the identified protein

Substance	Unique
NUP188	2
NUP214	4
PHRF1	2
POTEKP	1
PPP1CA	1
PTBP1	2
RBM25	4
RFC2	1
RFC4	1
RIF1	2
SENP3	2
SNRNP70	2

Same assay, conditions: HA-SS18SSX1_NE_peptides (Table 5B); HA-SS18-SSX1 BAF complex purification from soluble nuclear extract, HEK-293T

Substance	Total (peptides)	Unique (peptides)
RAD50	1	1
SCFD1	1	1
SETD2	1	1

Same assay, conditions: HA-SS18SSX1_NE_peptides: protein co-purified with HA-SS18-SSX1 BAF complexes from soluble nuclear extract (NE), HEK-293T cells

Substance	Total (peptides)	Unique (peptides)
NUP210 [listing 1 of 2 here]	1	1
PCBP1	2	2
PCID2	2	2
PKM	3	2
POTEKP	2	1
RAB1A	1	1
SAMHD1	1	1
SEC61A1	2	2
SENP3	1	1
SLC7A1	2	2
SLC7A3 [listing 1 of 2 here]	1	1
SLC7A5	3	2
SMARCA5	1	1
SPTLC2	2	2
SRSF3	2	2

Same assay, conditions: HA-SS18SSX1 purification, NE (soluble nuclear extract) fraction, HEK-293T; peptides per identified protein

Substance	Total (total peptides)	Unique (unique peptides)
NUP188	8	8
NUP205	14	13
PELP1	5	5
PHF3	6	6
POLRMT	5	4
PRKDC	89	78
PRPF8	14	14
RANBP2	3	3
RBM25	5	5
RFC2	6	5
RFC3	5	3
RFC4	4	4
RFC5	3	3
RHOT1	5	5
RIF1	3	3
SLC25A1	6	5
SMARCA2	221	60
SNRNP200	24	24
SPTLC1	4	4
SSRP1	5	5
SSX1	10	4

Same assay, conditions: HA-SS18WT_CHR_peptides: HA-SS18 WT purification from nuclease-treated solubilized chromatin (CHR), HEK-293T; label = protein identified

Substance	Total (peptides)	Unique (peptides)
NUP205	4	4
PBRM1	10	9
PDCD11	22	22
PELP1	3	3
PHIP	12	11
PKM	3	3
PNN	16	11
PRKDC	13	13
PRPF8	31	28
PWP1	3	2
RANBP2	6	6
RBM25	4	4
SMARCA2	128	46
SNRNP200	30	29
SON	11	10
SPEN	10	9
SRSF1	10	7
SSRP1	15	13

Same assay, conditions: HA-SS18WT_CHR_peptides: protein identified in HA-SS18 WT BAF complex purification from nuclease-treated solubilized chromatin (CHR), HEK-293T

Substance	Total (total peptides)	Unique (unique peptides)
NUP188	1	1
NUP210 [listing 2 of 2 here]	1	1
NUP214	1	1
PCBP1	1	1
PLEC	2	2
PTBP1	1	1
RAI1	1	1
RLF	1	1
SAG	1	1
SENP3	2	2
SRSF3	3	2

Same assay, conditions: HA-SS18WT_NE_peptides: HA-SS18 WT complexes purified from nuclear extract (NE), HEK-293T; label = protein identified (Gene Symbol)

Substance	Total (peptides)	Unique (peptides)
NUP188	9	9
NUP205	21	21
PHF3	4	4
POLRMT	7	6
PRKDC	98	83
PRPF8	21	21
RBM25	4	4
RFC2	4	3
RFC3	3	2
RFC4	3	3
RIF1	5	5
SLC25A1	7	7
SMARCA2	536	86
SNRNP200	34	34
SPTLC1	4	4
SPTLC2	3	3

Same assay, conditions: HA-SS18WT_NE_peptides: proteins co-purified with HA-SS18 WT from nuclear extract (NE), HEK-293T

Substance	Total (peptides)	Unique (peptides)
NUP214	1	1
PBRM1	2	2
PCID2	2	2
PELP1	2	2
PHB2	2	2
PI4KA	1	1
POTEKP	2	1
PPP1CA	1	1
RANBP2	2	2
RBFA	1	1
REV3L	1	1
RFC5	2	2
RHOT1	2	2
SDHA	2	2
SEC61A1	2	2
SLC7A1	2	2
SLC7A3 [listing 2 of 2 here]	1	1
SLC7A5	2	2
SSRP1	1	1
